{
  "source": "paper PMC8517398",
  "target": "Toll-like receptor 4 (human (endogenous in A549 / H460)) (UniProt O00206)",
  "assay": "co-IP; anti-TLR4 antibody (sc-293072, Santa Cruz) immobilised on resin (Pierce Co-Immunoprecipitation kit); lysates of NC and mCALR cells incubated with the resin at 4°C overnight; IgG antibody as negative control",
  "note": "No constants are given. Whether binding was seen depends on the method and setting. Binding seen in cells or lysates may run through a third protein.",
  "data": [
    {"substance": "cytoplasmic CALR (from UniProt P27797 18-417)", "values": [
      {"measurement": "binding", "result": "no binding"}
    ]}
  ]
}
